According to the supplement of paper PMC6411743:
± gives the standard deviation of the averaged measurements. The entries are a selection whose mix differs from that of the whole data set.

Protein sequences, listed by entry. Tags and fused reporters are not part of them. Lines headed by an entry give the natural chain unless they say otherwise; changes in a name come on top.
UniProt Q9H0K6: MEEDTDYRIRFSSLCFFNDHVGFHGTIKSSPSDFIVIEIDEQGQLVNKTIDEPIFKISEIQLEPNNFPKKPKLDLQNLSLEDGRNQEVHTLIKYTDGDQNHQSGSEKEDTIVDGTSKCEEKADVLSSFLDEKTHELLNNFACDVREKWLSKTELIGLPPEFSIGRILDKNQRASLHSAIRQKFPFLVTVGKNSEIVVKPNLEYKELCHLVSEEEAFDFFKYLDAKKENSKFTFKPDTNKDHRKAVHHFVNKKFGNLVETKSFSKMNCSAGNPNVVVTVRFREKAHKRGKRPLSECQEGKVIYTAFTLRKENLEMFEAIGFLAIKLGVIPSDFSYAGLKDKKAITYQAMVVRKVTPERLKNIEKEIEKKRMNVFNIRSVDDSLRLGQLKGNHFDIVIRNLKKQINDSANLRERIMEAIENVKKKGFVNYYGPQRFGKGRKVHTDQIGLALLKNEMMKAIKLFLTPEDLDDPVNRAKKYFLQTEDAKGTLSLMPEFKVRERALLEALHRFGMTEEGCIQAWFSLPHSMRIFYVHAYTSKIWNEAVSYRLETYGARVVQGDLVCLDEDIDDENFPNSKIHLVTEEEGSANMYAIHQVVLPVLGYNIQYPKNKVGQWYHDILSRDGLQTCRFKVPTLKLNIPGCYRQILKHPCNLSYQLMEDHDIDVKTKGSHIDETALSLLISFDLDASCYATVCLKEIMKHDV
UniProt Q9H6S0: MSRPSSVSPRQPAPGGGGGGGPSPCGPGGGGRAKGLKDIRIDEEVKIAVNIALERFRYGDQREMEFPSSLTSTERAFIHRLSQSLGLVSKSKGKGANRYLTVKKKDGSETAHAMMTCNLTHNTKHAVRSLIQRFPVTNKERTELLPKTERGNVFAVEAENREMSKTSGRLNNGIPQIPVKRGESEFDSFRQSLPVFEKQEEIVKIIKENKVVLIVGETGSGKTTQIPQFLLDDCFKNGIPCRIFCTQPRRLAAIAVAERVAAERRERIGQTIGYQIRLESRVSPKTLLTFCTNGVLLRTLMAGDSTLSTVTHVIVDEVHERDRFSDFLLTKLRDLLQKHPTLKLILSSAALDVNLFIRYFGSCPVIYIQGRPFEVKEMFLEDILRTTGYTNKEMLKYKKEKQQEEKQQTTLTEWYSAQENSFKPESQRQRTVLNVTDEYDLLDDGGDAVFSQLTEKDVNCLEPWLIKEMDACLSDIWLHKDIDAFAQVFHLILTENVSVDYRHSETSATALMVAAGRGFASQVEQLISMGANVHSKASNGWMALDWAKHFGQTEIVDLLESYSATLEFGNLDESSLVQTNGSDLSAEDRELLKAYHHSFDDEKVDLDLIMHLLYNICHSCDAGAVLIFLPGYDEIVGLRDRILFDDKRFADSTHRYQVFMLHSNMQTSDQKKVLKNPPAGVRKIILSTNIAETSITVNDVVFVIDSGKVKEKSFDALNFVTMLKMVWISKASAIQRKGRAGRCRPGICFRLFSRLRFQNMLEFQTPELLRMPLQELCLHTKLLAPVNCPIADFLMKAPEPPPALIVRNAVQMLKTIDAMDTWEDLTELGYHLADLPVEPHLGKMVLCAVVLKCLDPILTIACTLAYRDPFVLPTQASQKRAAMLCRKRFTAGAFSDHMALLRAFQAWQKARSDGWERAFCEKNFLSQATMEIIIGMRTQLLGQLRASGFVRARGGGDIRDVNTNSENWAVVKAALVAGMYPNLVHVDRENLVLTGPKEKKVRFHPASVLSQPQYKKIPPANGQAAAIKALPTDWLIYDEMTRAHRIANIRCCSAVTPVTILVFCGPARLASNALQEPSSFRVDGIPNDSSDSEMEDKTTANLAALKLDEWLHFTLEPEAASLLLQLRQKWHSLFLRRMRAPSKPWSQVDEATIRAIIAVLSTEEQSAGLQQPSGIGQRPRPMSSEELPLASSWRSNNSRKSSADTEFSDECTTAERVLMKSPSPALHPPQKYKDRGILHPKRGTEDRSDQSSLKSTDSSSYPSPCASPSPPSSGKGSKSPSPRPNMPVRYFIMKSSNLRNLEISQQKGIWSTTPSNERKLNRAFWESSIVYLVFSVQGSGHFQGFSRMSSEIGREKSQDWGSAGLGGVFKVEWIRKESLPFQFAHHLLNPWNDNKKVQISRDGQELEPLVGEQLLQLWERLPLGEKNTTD
UniProt Q9H269: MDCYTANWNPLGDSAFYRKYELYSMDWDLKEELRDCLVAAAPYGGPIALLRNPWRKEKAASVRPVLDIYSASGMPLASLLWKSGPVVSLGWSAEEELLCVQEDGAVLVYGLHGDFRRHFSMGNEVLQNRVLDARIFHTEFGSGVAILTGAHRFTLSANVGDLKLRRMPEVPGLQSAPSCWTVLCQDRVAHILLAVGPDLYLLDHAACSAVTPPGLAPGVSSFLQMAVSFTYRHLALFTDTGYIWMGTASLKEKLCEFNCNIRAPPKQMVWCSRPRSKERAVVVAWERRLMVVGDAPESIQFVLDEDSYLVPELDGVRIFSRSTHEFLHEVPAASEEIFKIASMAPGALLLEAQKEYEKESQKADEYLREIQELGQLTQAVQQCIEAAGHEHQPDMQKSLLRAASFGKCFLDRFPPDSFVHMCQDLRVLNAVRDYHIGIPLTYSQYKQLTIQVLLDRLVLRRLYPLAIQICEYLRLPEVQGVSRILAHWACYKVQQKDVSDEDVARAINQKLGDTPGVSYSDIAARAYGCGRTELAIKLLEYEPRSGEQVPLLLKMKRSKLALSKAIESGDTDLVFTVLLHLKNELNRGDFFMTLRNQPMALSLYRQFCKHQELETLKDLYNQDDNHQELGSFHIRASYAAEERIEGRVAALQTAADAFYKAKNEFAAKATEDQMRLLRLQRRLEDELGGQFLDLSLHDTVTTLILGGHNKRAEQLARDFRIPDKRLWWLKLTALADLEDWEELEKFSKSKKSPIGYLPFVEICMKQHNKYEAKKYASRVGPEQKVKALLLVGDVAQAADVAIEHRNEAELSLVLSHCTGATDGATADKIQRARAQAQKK
UniProt Q9H334: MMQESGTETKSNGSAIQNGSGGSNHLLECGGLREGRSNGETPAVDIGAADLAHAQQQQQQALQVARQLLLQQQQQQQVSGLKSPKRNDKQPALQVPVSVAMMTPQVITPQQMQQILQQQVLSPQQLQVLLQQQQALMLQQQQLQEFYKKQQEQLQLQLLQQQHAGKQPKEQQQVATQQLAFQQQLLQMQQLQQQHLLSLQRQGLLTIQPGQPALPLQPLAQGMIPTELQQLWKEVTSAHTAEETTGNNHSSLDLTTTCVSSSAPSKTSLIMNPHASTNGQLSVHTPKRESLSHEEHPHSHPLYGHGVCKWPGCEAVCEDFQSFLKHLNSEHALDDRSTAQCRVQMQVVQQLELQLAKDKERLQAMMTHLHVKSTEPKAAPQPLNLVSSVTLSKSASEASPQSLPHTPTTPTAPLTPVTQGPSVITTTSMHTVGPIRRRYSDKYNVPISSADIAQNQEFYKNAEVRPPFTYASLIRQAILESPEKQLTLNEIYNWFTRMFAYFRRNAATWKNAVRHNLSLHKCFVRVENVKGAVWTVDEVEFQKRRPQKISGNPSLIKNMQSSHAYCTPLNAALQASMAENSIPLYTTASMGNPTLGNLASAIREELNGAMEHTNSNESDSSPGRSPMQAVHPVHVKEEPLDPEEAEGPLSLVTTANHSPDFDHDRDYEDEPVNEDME
UniProt Q9H0C8: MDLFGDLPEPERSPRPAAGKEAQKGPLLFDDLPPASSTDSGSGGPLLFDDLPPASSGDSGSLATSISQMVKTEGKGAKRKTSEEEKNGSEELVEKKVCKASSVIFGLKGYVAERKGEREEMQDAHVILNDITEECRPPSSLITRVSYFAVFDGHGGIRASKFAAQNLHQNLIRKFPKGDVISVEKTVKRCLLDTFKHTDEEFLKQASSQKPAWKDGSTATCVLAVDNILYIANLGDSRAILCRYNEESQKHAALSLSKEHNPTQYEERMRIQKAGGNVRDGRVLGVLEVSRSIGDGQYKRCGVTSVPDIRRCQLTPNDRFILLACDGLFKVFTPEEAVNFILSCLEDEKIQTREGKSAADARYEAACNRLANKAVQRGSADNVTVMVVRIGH
UniProt Q9C037: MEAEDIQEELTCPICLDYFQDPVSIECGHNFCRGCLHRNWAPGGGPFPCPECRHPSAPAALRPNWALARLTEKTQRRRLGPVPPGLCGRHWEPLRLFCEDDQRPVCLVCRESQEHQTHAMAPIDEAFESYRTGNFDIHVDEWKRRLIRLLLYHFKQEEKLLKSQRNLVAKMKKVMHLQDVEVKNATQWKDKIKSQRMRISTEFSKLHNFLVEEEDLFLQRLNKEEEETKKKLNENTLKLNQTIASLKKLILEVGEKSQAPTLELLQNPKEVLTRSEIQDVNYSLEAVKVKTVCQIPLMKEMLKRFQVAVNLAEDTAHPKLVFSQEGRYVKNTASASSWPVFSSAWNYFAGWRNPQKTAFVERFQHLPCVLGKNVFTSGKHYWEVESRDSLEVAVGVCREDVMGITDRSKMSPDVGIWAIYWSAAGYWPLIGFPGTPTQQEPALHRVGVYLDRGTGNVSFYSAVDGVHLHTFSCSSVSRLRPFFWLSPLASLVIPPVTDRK
UniProt Q9NP97, whole entry: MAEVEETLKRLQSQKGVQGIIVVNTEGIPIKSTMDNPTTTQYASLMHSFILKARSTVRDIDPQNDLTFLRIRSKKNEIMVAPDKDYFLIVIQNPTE
UniProt Q9H857: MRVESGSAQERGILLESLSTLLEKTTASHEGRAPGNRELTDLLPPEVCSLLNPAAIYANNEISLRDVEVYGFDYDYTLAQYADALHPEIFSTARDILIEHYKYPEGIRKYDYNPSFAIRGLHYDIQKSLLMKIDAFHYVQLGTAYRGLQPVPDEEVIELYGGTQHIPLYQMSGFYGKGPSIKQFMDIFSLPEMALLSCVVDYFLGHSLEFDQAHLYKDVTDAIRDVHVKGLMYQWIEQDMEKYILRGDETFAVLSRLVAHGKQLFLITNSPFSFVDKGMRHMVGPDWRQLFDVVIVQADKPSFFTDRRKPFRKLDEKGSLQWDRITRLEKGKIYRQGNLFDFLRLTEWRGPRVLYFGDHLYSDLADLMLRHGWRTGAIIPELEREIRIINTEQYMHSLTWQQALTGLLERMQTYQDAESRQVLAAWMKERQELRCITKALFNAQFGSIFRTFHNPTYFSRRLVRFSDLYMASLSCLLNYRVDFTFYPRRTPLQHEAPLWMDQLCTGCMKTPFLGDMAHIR
UniProt Q9GZR2: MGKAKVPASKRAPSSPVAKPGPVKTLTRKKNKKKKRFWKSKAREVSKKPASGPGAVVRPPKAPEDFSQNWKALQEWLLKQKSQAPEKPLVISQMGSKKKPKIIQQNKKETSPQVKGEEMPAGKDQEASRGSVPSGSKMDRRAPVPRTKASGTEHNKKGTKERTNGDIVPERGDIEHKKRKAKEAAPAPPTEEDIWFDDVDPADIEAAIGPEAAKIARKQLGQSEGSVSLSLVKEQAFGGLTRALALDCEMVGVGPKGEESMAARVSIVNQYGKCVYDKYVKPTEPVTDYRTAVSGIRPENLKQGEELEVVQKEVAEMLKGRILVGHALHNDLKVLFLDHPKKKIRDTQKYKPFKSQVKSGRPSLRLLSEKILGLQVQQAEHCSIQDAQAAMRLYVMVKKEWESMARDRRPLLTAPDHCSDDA
UniProt Q9HCJ3: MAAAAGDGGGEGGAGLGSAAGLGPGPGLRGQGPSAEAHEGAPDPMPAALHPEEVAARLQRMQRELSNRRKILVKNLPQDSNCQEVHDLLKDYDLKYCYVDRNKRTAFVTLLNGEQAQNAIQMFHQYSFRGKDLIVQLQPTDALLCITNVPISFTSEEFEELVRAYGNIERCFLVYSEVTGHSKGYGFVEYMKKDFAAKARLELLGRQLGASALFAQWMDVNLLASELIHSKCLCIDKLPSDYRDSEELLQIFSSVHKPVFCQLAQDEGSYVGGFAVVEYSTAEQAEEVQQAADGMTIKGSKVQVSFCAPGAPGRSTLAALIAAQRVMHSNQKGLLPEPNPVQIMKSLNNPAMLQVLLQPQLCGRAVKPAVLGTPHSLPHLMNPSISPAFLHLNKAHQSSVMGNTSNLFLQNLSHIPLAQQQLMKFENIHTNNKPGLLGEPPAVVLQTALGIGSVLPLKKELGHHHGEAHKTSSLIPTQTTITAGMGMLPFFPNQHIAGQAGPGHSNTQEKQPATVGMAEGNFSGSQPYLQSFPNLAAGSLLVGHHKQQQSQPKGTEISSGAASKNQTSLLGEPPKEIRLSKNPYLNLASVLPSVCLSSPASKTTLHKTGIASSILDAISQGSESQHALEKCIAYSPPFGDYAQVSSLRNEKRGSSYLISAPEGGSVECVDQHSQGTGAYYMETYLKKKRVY

Compound: Nc1ncnc2c1ncn2[C@@H]1O[C@H](COP(=O)(O)OP(=O)(O)NP(=O)(O)O)[C@@H](O)[C@H]1O [adenylyl imidodiphosphate]
Test: NP40-soluble protein abundance relative to vehicle (solubility fold change) (ratio); higher = more soluble protein in presence of AMP-PNP
Outline: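 Eight concentrations, 0.1 to 10 mM, were tested on Jurkat crude lysate for 10 min at room temperature and then 3 min at 37 °C, in three independent experiments. The lysate was solubilised with 0.8% NP40 and benzonase, ultracentrifuged, and the supernatant TMT-labelled for LC-MS/MS. Each value is the fold change against the detergent-processed vehicle in its own replicate, from vsn-normalised intensities.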

| Target | NP40-soluble protein abundance (concentration: 1mM) | NP40-soluble protein abundance (concentration: 2mM) | NP40-soluble protein abundance (concentration: 4mM) | NP40-soluble protein abundance (concentration: 6mM) | NP40-soluble protein abundance (concentration: 8mM) | NP40-soluble protein abundance (concentration: 10mM) |
| --- | --- | --- | --- | --- | --- | --- |
| PUS7L (UniProt Q9H0K6) | 1.03 ± 0.05 | 1.01 ± 0.039 | 1.01 ± 0.049 | 0.996 ± 0.05 | 0.997 ± 0.033 | 0.993 ± 0.047 |
| YTHDC2 (UniProt Q9H6S0) | 1.07 ± 0.039 | 1.08 ± 0.049 | 1.15 ± 0.022 | 1.18 ± 0.024 | 1.2 ± 0.033 | 1.193 ± 0.0055 |
| VPS16 (UniProt Q9H269) | 1.014 ± 0.0028 | 0.909 ± 0.076 | 0.978 ± 0.042 | 0.9357 ± 0.0082 | 0.988 ± 0.058 | 0.911 ± 0.046 |
| UniProt Q9GZY8-2 | 1.04 ± 0.017 | 1.05 ± 0.057 | 1.03 ± 0.036 | 0.992 ± 0.024 | 0.983 ± 0.02 | 0.973 ± 0.015 |
| UniProt Q9HBM0 and related entries | 0.9994 ± 0.0068 | 0.9816 ± 0.0096 | 0.994 ± 0.015 | 0.9772 ± 0.0085 | 0.9691 ± 0.0064 | 0.963 ± 0.018 |
| SCAF1 (UniProt Q9H7N4) | 1.06 ± 0.046 | 1.14 ± 0.055 | 1.13 ± 0.027 | 1.18 ± 0.066 | 1.2 ± 0.049 | 1.24 ± 0.039 |
| UniProt Q9HA65 and related entries | 1.07 ± 0.015 | 1.04 ± 0.023 | 1.033 ± 0.004 | 1.04 ± 0.074 | 1.04 ± 0.018 | 1.09 ± 0.025 |
| UniProt Q9H334 and related entries | 0.965 ± 0.017 | 1.01 ± 0.042 | 0.949 ± 0.015 | 0.9751 ± 0.0078 | 0.961 ± 0.013 | 0.9748 ± 0.0088 |
| UniProt Q9H8Y8 and related entries | 0.9802 ± 0.0083 | 1.03 ± 0.057 | 0.9419 ± 0.0071 | 0.9873 ± 0.0072 | 0.933 ± 0.022 | 0.978 ± 0.05 |
| UniProt Q9HD33 and related entries | 1.02 ± 0.097 | 1.05 ± 0.078 | 0.987 ± 0.083 | 1.02 ± 0.11 | 1.01 ± 0.13 | 1.04 ± 0.18 |
| ILKAP (UniProt Q9H0C8) | 0.986 ± 0.022 | 0.976 ± 0.03 | 0.98 ± 0.034 | 0.991 ± 0.016 | 1.01 ± 0.021 | 0.983 ± 0.037 |
| UniProt Q9C037 and related entries | 1.02 ± 0.025 | 0.9725 ± 0.0043 | 1.02 ± 0.018 | 0.9721 ± 0.006 | 0.999 ± 0.035 | 0.971 ± 0.021 |
| DYNLRB1 (UniProt Q9NP97) | 0.996 ± 0.011 | 1.04 ± 0.054 | 0.977 ± 0.03 | 1.01 ± 0.018 | 0.9949 ± 0.0057 | 1.01 ± 0.02 |
| VPS33B (UniProt Q9H267) | 0.956 ± 0.028 | 0.895 ± 0.11 | 0.966 ± 0.011 | 0.935 ± 0.02 | 0.937 ± 0.0095 | 0.932 ± 0.019 |
| UniProt Q9H857 and related entries | 0.953 ± 0.025 | 0.872 ± 0.1 | 0.933 ± 0.037 | 0.912 ± 0.02 | 0.936 ± 0.017 | 0.886 ± 0.038 |
| REXO4 (UniProt Q9GZR2) | 1.06 ± 0.047 | 1.09 ± 0.073 | 1.1 ± 0.038 | 1.17 ± 0.036 | 1.18 ± 0.039 | 1.21 ± 0.051 |
| MRPL44 (UniProt Q9H9J2) | 1.01 ± 0.068 | 0.983 ± 0.064 | 0.995 ± 0.11 | 0.959 ± 0.13 | 0.971 ± 0.11 | 0.975 ± 0.17 |
| UniProt Q9H1K0 | 0.992 ± 0.028 | 1.01 ± 0.02 | 1.01 ± 0.04 | 0.992 ± 0.021 | 0.972 ± 0.041 | 1.01 ± 0.051 |
| PTGES2 (UniProt Q9H7Z7) | 0.985 ± 0.041 | 0.962 ± 0.024 | 0.978 ± 0.076 | 0.968 ± 0.052 | 0.949 ± 0.045 | 0.967 ± 0.069 |
| UniProt Q9HCJ3 and related entries | 1.01 ± 0.042 | 1.01 ± 0.029 | 0.974 ± 0.015 | 0.987 ± 0.017 | 0.974 ± 0.031 | 0.991 ± 0.058 |

Two entries from above, with tabs:
Target	NP40-soluble protein abundance (concentration: 1mM)	NP40-soluble protein abundance (concentration: 2mM)	NP40-soluble protein abundance (concentration: 4mM)	NP40-soluble protein abundance (concentration: 6mM)	NP40-soluble protein abundance (concentration: 8mM)	NP40-soluble protein abundance (concentration: 10mM)
YTHDC2 (UniProt Q9H6S0)	1.07 ± 0.039	1.08 ± 0.049	1.15 ± 0.022	1.18 ± 0.024	1.2 ± 0.033	1.193 ± 0.0055
MRPL44 (UniProt Q9H9J2)	1.01 ± 0.068	0.983 ± 0.064	0.995 ± 0.11	0.959 ± 0.13	0.971 ± 0.11	0.975 ± 0.17
